Laboratory results as given in the supplement of paper PMC8426693.
Some of the results follow.

Columns and labels:
Experiment in all cases: NMR binding call after quantification (hit when 2 of 3 NMR criteria are met) (binary (1 = binding, 0 = not binding)); higher = binding
Conditions in all cases: RNA concentration 10 µM; fragment concentration 200 µM; 293 K
SARS-CoV-2 5_SL7 RNA = system: SARS-CoV-2 5_SL7 RNA
[1] = system: SARS-CoV-2 frameshift pseudoknot (PK) RNA
SARS-CoV-2 5_SL8 RNA = system: SARS-CoV-2 5_SL8 RNA
[2] = system: SARS-CoV-2 attenuator hairpin (att HP) RNA

SMILES	NMR binding call (SARS-CoV-2 5_SL7 RNA)	NMR binding call [1]	NMR binding call (SARS-CoV-2 5_SL8 RNA)	NMR binding call [2]
N#Cc1ccc(Cn2cnc3ccccc32)cc1	0	0		
c1ccc(NCC2CCNC2)nc1 (configuration not stated)	1	1		
CN(C)c1ccncc1			0	0
CC(CO)(CO)NC(=O)Nc1ccccc1	0	0		0
CC(CO)N(C)c1ncc(Cl)cn1 (configuration not stated)	0	0		0
CCCC(=O)Nc1nnn(CC)n1	0	0		0
Cc1ccc(CNC(=O)C2CCC2)cn1	0	0		
O=C(NCCc1ccncc1)NC1CCCCC1	0	0		
c1cc(-c2ccc3c(c2)OCO3)n[nH]1		0	1	0
Cc1cc(C(=O)Nc2ccn(C)n2)on1		0	0	0
CC(C)Nc1cccnc1		0	0	0
O=C(Nc1ccc(O)cc1)c1ccc(Cl)cc1	0	0		0
Oc1ccccc1CN1CCOCC1	0	0		0
Cl.NCc1cc(-c2ccccc2)no1	1	0		0
CC(=O)N(C)c1ccccc1C(=O)O	0	0		0
NC(=O)c1ccc(NC(=O)c2cnccn2)cc1	0	0		0
COC(=O)Nc1nc2c(C)cccc2s1		0	0	0
Cc1cc(N2CCNCC2)nc(C)n1		0	0	0
N#Cc1ccc(NC(=O)c2cccs2)cc1	0	0		0

2 compounds picked at random from the list so far:
SMILES	NMR binding call (SARS-CoV-2 5_SL7 RNA)	NMR binding call [1]	NMR binding call (SARS-CoV-2 5_SL8 RNA)	NMR binding call [2]
CC(=O)N(C)c1ccccc1C(=O)O	0	0		0
O=C(NCCc1ccncc1)NC1CCCCC1	0	0		
